Laboratory results: PubChem BioAssay AID1347426 (Functional Genomics Laboratory (NCATS/FGL), 2020)
Out of some 31,000 sequences screened, about 1,400 (4.5%) were called active.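 How the source made its calls: active means median seed-adjusted z-score above 1 or below -1; inactive means the rest.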 The list shows a part of the results.

Experiment: Novel Modifiers of Survival Motor Neuron (SMN) Protein: Gene Identification via Genome-wide siRNA Screen;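 further: luminescence tracks full-length SMN protein made from the SMN2 reporter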
Conditions: HEK293T SMN2-luciferase reporter, siRNA knockdown, 72 h; actives lie on both sides
Procedure, shortened: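 siRNA screen, 10418 genes ×3 siRNAs; 1 pmol/well, lipid reverse transfection into HEK293T SMN2-luc reporter line. 72 h, 37 °C, 5% CO2; ONE-Glo readout. Data: neg-ctrl normalized, log10, MAD; hit = MAD >1.0 or < -1.0.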
With GGAUCGCACUCAUGUGGAATT against A4GALT the median seed-adjusted z-score was inactive: -0.286. With CGAGGAGCGAGUGCUGAAATT against CREB3L3 the median seed-adjusted z-score was inactive: -0.076. In the case of GGAAUGAAGCGUGUCCUGATT against KSR1, the median seed-adjusted z-score is reported as inactive: 0.0873. In the case of GAUCAUGCGUAACUACAGUTT against JUP, the median seed-adjusted z-score is reported as inactive: 0.15. With GGAUAGAGGUUUCCAGUUUTT against CNBP the median seed-adjusted z-score was active: -1.14. For CCAAAAUAGGGUCGAAUUATT against SQRDL, the median seed-adjusted z-score was inactive: 0.455. With GACCUUGAGUCAUGAUUCATT against ZNF582 the median seed-adjusted z-score was inactive: -0.421. For GAUCUUCGCUGUAACCCAATT against ITGB6, the median seed-adjusted z-score was inactive: -0.5. With CGGUGCCCGUGGAAAUGAUTT against SERPINF2 the median seed-adjusted z-score was inactive: 0.629. For GCCGGAAUCCUGAAACUCATT against NFATC1, the median seed-adjusted z-score was inactive: 0.00712. In the case of GGACUUCACCGAGAACCCATT against GFRA2, the median seed-adjusted z-score is reported as inactive: 0.363. In the case of CCCGGAUACUUCUGAAGAATT against HNRPDL, the median seed-adjusted z-score is reported as inactive: -0.68. In the case of CCAAGACUAUGUAUCGAUUTT against RG9MTD3, the median seed-adjusted z-score is reported as inactive: -0.174. In the case of GAGCCUUUGGGAAUAAAAATT against PTGER1, the median seed-adjusted z-score is reported as inactive: 0.383. For GUAUACACGUACAUCCAAATT against DYRK4, the median seed-adjusted z-score was inactive: -0.824. With GGUGAGAUGCUAUGUGGAATT against ADPRHL1 the median seed-adjusted z-score was inactive: 0. With CCUCUACGCUACAACAAGATT against EBI2 the median seed-adjusted z-score was inactive: -0.312. In the case of UUGUAGAAAUGGAUACUGATT against ATR, the median seed-adjusted z-score is reported as inactive: -0.217. For GUACGGACCAUAAUAAUCATT against AUH, the median seed-adjusted z-score was inactive: 0. In the case of CCCUCAAUAUGGUCAAGUATT against MYST1, the median seed-adjusted z-score is reported as inactive: 0. With GAAAAACUCUGACUAAUGATT against B4GALT4 the median seed-adjusted z-score was inactive: -0.0479. With GCUCUGCUGUGGGCUACUATT against SLC31A2 the median seed-adjusted z-score was inactive: 0.401. In the case of CGAUCAUUACCUCUCCAGATT against ARHGEF4, the median seed-adjusted z-score is reported as inactive: 0.332. For GAAUUCGACCAGUAUUUGATT against SOX7, the median seed-adjusted z-score was inactive: -0.387. In the case of GGGAUGAACUAGAUAGUAUTT against BRIP1, the median seed-adjusted z-score is reported as inactive: 0.312. In the case of GCAAUCAUUUGAAACUCCATT against CASP4, the median seed-adjusted z-score is reported as inactive: -0.564. For CGAGUUCAUUCAUGACAUATT against SERPINF1, the median seed-adjusted z-score was inactive: -0.145. In the case of GGCUGUACGAGUUAGCAAUTT against MYRIP, the median seed-adjusted z-score is reported as inactive: 0.141. In the case of CAGCAAUUCUGGGAAGCGATT against GPR65, the median seed-adjusted z-score is reported as inactive: -0.766. In the case of UGAAGUACUGGAUCCGUUATT against EBI3, the median seed-adjusted z-score is reported as inactive: -0.206. With CAUCGGUACUUCAAGCGUATT against SLC7A1 the median seed-adjusted z-score was inactive: 0.445. For CAAUGACCCUAAUACGACATT against ST3GAL6, the median seed-adjusted z-score was inactive: -0.548. In the case of CCUUUUAUAUAUUCUCGGATT against GPR75, the median seed-adjusted z-score is reported as inactive: 0. With GAAAAAUGGUUAACAUGUUTT against FOXD1 the median seed-adjusted z-score was inactive: -0.659. With GAUGCUUGCUAAUCGAACATT against SEC23B the median seed-adjusted z-score was inactive: 0.48. In the case of GGAUGACUCAGAGAUCUCATT against IPO4, the median seed-adjusted z-score is reported as inactive: -0.0188. In the case of GGACUGAACCUAAAGGCAUTT against KCNE1, the median seed-adjusted z-score is reported as inactive: -0.347. For GGAGGUUCUAUCUACCAGATT against VDAC3, the median seed-adjusted z-score was inactive: 0.646. For CGGCUGAUGUUCUCGAAUUTT against BRD3, the median seed-adjusted z-score was inactive: 0.633. In the case of CGAUCGUCUUCUGAUCAAATT against DPYSL2, the median seed-adjusted z-score is reported as inactive: -0.569. With GGACGGACACGUUCAAGCATT against LRRC4B the median seed-adjusted z-score was inactive: 0.288. With CAAGGACAACCACACAGAATT against FOXS1 the median seed-adjusted z-score was inactive: 0. For CGUGUUAGUGAAUAAAGUATT against ZNF771, the median seed-adjusted z-score was inactive: 0.108. With CCCACGAUAUCAUCACCAATT against SERPINA1 the median seed-adjusted z-score was inactive: 0.00292. For GACGAAUUCCUAUAAAGCUTT against CBLL1, the median seed-adjusted z-score was inactive: -0.466. With UGCAGAAACUUAAUAGCCATT against CITED1 the median seed-adjusted z-score was inactive: 0. In the case of GGACAGUCAUUCAUUCCAATT against TENC1, the median seed-adjusted z-score is reported as inactive: 0.892. In the case of GCUUCUAUUUAGUCACGAATT against AKAP9, the median seed-adjusted z-score is reported as active: -1.22. In the case of GAAAUUCCACUGUAUCUAATT against COX7A2, the median seed-adjusted z-score is reported as inactive: -0.0808. For CACCUACUUUGGAAAGAGATT against CNP, the median seed-adjusted z-score was inactive: -0.116. In the case of GAAUAAGCCUUCGAAAAGATT against ACTG1, the median seed-adjusted z-score is reported as inactive: -0.227. With AGUCCAACCUGGUGUCGCATT against REPIN1 the median seed-adjusted z-score was inactive: -0.0614. In the case of GAGCAUGUUUUUACCCUUUTT against MGC17403, the median seed-adjusted z-score is reported as inactive: 0.204. In the case of AGAUGAGGAGUGUCGUCAATT against KLK13, the median seed-adjusted z-score is reported as inactive: 0.452. With CCAUAUGUGGUGACACGUUTT against MAPK10 the median seed-adjusted z-score was inactive: -0.0114. With AGGGCUAUCUGGUAUCUGUTT against SNRPF the median seed-adjusted z-score was active: -2.66. In the case of GCCUUAAGGCAGUUCUUAUTT against CYTH3, the median seed-adjusted z-score is reported as inactive: 0.196. In the case of GCAGAUGGUUAUAAGCACATT against GLA, the median seed-adjusted z-score is reported as inactive: -0.494. For UCACAUGACCUUUGACUUUTT against LINGO4, the median seed-adjusted z-score was inactive: 0.388. With GCUCUAAUCUUGAACUUCATT against ZNF233 the median seed-adjusted z-score was inactive: 0.59. For CCUUGAUCCUCGACUGUAATT against COL5A1, the median seed-adjusted z-score was inactive: -0.00475. With “GCAUGACCAUGAUUCGAGUTT against ST6GALNAC3” the median seed-adjusted z-score was inactive: -0.205. For GGCGAGUUGUUUACCCUUUTT against DKC1, the median seed-adjusted z-score was inactive: -0.203. For CAGAUGACUUCAGAACCAATT against KRT33B, the median seed-adjusted z-score was inactive: 0.04. In the case of GGAUGCCGCAGUAUCGUAATT against DNAJA2, the median seed-adjusted z-score is reported as inactive: 0. With GCAUCUAUGGUGAGACAUUTT against PPIC the median seed-adjusted z-score was inactive: 0.0824. In the case of GGGUUUGGAUAGGAUCAAUTT against PPP3CB, the median seed-adjusted z-score is reported as inactive: 0.0225. With GCCCACAAUGACUCACAUATT against GLYCTK the median seed-adjusted z-score was inactive: 0.0328. With CGGUAUCACGUGACAAUCATT against KLF16 the median seed-adjusted z-score was inactive: 0.461. For GAUGGAAGCUUACUAGAUUTT against TCF7L2, the median seed-adjusted z-score was inactive: 0.189. With GGCUGGACAUAUUCAAGGATT against LARP1 the median seed-adjusted z-score was inactive: 0.251. In the case of CAGAUUACCUGUUUCGUGATT against NPC1, the median seed-adjusted z-score is reported as inactive: -0.195. With UGAGAGUCCACGGCCCAUATT against TPSAB1 the median seed-adjusted z-score was inactive: 0.197. In the case of GAACGGGUAGAUGAAAUUATT against METTL3, the median seed-adjusted z-score is reported as inactive: 0.261. In the case of GGAUGUUCGCGAUGGACAATT against MAP3K15, the median seed-adjusted z-score is reported as inactive: -0.315. With CGGUGACUGCUUAUCAGAATT against T the median seed-adjusted z-score was inactive: -0.018. In the case of GUAUUGAAGUUAGAGUUGUTT against NKRF, the median seed-adjusted z-score is reported as inactive: -0.0368. For CCAAUGGAACUAUCCGGAATT against IDH2, the median seed-adjusted z-score was inactive: 0.0592. With GGUCUAACUCAAUAAUGGATT against REV3L the median seed-adjusted z-score was inactive: 0.062. In the case of GAAGCAGCUUGAAACCAGATT against COL22A1, the median seed-adjusted z-score is reported as inactive: 0.3. For CAAAAGGACAAGAACAAUATT against TERF1, the median seed-adjusted z-score was inactive: 0.0114. For GCUAUCGACCAGUACAACATT against NPBWR1, the median seed-adjusted z-score was inactive: 0.344. With CCUCUACGCUACUACCUGATT against TSPYL2 the median seed-adjusted z-score was inactive: 0.0187. For GGACUAUCCUUGAGGCAAATT against ATP6AP2, the median seed-adjusted z-score was inactive: -0.705. For GUUUCAUCUGGGUUCGCUATT against SF3B3, the median seed-adjusted z-score was active: -2.53. For CGGCUAUCCUGAUGACAUUTT against MME, the median seed-adjusted z-score was inactive: 0.129. For AGCUGUACAAGUUCCCGGATT against SYT15, the median seed-adjusted z-score was inactive: 0.0164. With CCCUCACUAUCACGGUUAATT against ATP6V1B2 the median seed-adjusted z-score was inactive: 0.24. In the case of CAAUCAUGAUCGCAGAGAATT against CHDH, the median seed-adjusted z-score is reported as inactive: 0.0241. For GGCUUAUGGAUGACAUUUATT against NDUFS2, the median seed-adjusted z-score was inactive: -0.388. For CGGUAUCAUUACUGGAUAATT against LNPEP, the median seed-adjusted z-score was inactive: -0.386. With GCAUGGUAUUGGAAUAACUTT against CHEK1 the median seed-adjusted z-score was active: -5.1. With GAAACAGUGAGUUAAAGCATT against GPR44 the median seed-adjusted z-score was inactive: -0.527. In the case of GACUGCAUCUUAGUCAACATT against ALG2, the median seed-adjusted z-score is reported as inactive: 0.631. In the case of AACUCAUCCUGAUGCCUAATT against PHC1, the median seed-adjusted z-score is reported as inactive: -0.615. With CCAUGGAUAUGGAAACCCATT against ALPK3 the median seed-adjusted z-score was inactive: 0.365. With GGACUCCAGUGGUAGCUAUTT against AARS the median seed-adjusted z-score was inactive: 0. With CGCUCUUAAAGAUGAGUUATT against SYK the median seed-adjusted z-score was inactive: 0.567. In the case of GAAACCCUAUUACGAUGAATT against SOX30, the median seed-adjusted z-score is reported as inactive: -0.167. With GAAGGACUCCUGCAACGGUTT against KLK4 the median seed-adjusted z-score was inactive: 0.437. In the case of GGCAACAACUGGAUCUGAATT against PIGZ, the median seed-adjusted z-score is reported as inactive: 0.74. With ACAACUUCGUUUUCGGUCATT against TUBB2C the median seed-adjusted z-score was inactive: 0. In the case of GUGUGAAGGUAGACCGUGATT against SPATA20, the median seed-adjusted z-score is reported as inactive: 0. With GCAAUGACUCUAAACUGGATT against S100A14 the median seed-adjusted z-score was inactive: 0.0172. In the case of CGAGCCACCGAGAAGAUAATT against ATAD3A, the median seed-adjusted z-score is reported as inactive: -0.283. In the case of CGUGAGAUCUACGACUUCATT against PTDSS2, the median seed-adjusted z-score is reported as inactive: 0.0941. In the case of GGCACGUUUUACGACAGAATT against CHEK2, the median seed-adjusted z-score is reported as inactive: 0.585. In the case of GCAAGGUUGUAAAAUCAAATT against MEX3B, the median seed-adjusted z-score is reported as inactive: -0.0576.
